Measurements published in article PMC2217592.
Results are given in words; binding and its absence hold for the method and conditions named. In cells and extracts the contact can be indirect. Some entries that bind do so weakly or less than the wild type.

Sequences of proteins named here, by UniProt entry; tags and fusion partners are left off. Residues count along the entry.
UniProt Q13488, residues 217-830: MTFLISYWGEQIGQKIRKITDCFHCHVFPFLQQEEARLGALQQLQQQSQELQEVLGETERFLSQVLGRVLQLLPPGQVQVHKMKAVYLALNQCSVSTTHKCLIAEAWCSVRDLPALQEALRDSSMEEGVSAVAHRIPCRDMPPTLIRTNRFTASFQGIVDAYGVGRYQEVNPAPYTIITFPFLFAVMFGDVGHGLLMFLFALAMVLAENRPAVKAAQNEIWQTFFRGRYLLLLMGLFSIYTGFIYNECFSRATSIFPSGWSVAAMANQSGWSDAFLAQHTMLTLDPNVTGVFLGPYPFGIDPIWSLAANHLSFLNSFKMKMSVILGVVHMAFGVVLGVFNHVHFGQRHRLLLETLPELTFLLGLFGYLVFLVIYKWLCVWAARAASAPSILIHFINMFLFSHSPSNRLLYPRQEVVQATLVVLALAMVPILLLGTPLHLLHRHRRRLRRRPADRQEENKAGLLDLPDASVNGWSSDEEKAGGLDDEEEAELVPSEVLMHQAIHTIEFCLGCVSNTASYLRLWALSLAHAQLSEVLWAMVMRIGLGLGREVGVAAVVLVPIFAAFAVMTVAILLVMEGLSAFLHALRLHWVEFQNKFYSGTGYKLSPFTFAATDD
UniProt P01903, residues 26-254: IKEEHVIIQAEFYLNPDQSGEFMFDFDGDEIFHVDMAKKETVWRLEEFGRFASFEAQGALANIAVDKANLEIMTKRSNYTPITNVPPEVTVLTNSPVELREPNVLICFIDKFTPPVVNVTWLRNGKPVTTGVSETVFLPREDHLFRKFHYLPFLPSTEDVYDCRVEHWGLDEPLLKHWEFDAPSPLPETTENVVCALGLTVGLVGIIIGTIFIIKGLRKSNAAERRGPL
UniProt P29350: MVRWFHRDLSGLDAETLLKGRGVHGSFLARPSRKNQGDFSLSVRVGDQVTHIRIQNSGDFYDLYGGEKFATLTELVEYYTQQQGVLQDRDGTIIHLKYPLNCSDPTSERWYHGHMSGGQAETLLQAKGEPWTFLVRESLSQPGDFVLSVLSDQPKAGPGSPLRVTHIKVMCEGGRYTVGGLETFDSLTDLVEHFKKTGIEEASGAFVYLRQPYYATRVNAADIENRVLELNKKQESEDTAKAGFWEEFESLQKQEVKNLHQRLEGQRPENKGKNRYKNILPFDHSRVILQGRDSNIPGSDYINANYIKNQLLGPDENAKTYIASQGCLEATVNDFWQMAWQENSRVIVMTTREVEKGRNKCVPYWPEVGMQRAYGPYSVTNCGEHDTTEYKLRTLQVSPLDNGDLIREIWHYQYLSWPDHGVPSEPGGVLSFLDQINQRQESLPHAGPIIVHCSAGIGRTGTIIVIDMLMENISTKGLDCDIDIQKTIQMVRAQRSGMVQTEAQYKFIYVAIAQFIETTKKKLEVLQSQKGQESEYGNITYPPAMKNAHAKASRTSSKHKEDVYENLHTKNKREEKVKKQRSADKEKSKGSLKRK

Tests used:
[1] = target: TIRC7 (human (endogenous in PBL)) (UniProt Q13488); assay: co-IP; lysates of 1 h allo-activated human PBL, immunoprecipitated with anti-TIRC7 mAb (20 µg), protein-A/protein-G Sepharose; immunoblot with anti-HLA-DR mAb (CBL120), anti-TIRC7 or anti-SHP-1
[2] = target: TIRC7 (human (endogenous in PBL)) (UniProt Q13488); assay: co-IP; polyclonal antibody recognizing TIRC7; co-precipitated chain identified by protein sequencing; data not shown

binding [1] | binding [2] | Substance
binds | binds | HLA-DR alpha chain (from UniProt P01903 26-254)
binds | – | SHP-1 (from UniProt P29350 1-595) (enzyme)
